Test results: paper PMC5369006
These are yes or no findings as the source states them, for the method shown. A result given as binding can be weak or reduced; the word gives no strength.

Target: T1, PaATG8 (amino acids 1 to 115), yeast two-hybrid bait (Podospora anserina) (UniProt Q8J282)
T1 sequence: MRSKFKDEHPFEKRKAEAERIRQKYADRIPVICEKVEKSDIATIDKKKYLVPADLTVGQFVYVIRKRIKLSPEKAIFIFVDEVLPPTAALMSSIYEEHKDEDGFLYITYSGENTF
Assay: two-hybrid; library screen: LexA-PaATG8 (1-115) bait in pLexA-DIR, P. anserina cDNA library (rapamycin-treated cultures) in pGAD-HA as prey, yeast NMY32; growth on medium lacking tryptophan, leucine and histidine and quantitative beta-galactosidase assay

Substance | binding
Pa_2_2450, prey of the cDNA library (Podospora anserina) | binds
Pa_4_2219, prey of the cDNA library (Podospora anserina) | binds
